These are yes or no findings as the source states them, for the method shown. Binding seen in cells or lysates may run through a third protein. For some assays here: Where a sequence is shown, tags or fusion partners need not be part of it.

Sequences of proteins named here, by UniProt entry; tags and fusion partners are left off.
UniProt Q8IXI2: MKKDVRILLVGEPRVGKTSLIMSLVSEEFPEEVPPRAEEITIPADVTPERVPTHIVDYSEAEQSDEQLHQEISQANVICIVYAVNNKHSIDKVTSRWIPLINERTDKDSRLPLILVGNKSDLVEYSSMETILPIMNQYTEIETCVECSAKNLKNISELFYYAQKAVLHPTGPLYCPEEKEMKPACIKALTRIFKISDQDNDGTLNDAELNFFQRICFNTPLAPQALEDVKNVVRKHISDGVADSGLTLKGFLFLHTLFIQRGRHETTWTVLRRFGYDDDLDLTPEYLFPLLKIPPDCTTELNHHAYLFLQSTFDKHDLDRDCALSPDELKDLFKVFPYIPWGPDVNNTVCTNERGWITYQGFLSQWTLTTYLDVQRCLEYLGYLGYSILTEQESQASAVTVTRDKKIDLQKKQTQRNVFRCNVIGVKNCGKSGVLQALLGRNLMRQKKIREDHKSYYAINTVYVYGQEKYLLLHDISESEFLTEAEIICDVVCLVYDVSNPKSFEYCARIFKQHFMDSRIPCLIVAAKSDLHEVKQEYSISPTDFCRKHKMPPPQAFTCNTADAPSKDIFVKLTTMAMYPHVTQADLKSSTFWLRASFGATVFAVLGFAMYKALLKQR
UniProt Q9BXM7: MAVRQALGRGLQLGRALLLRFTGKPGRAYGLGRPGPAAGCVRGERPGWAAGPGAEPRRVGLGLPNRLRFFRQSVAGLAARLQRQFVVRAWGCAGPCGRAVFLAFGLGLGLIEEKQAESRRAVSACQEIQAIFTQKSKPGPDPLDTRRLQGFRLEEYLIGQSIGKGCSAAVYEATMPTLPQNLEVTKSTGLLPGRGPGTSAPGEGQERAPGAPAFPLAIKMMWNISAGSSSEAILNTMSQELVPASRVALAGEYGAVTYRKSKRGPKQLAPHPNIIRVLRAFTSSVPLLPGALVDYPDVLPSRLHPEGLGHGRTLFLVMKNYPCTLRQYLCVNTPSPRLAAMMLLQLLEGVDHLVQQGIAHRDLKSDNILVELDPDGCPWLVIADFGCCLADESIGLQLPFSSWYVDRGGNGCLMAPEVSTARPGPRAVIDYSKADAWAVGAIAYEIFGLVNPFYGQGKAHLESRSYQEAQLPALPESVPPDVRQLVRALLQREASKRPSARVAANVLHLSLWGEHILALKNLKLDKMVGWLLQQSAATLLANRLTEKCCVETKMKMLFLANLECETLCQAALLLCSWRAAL

Assay [1] has as its target Miro1 (human (endogenous in U2OS)) (UniProt Q8IXI2). As to the kind of experiment: proximity ligation.
Assay [2] has as its target T1, Mitofusin-1 (human (endogenous in U2OS)) (UniProt Q8IWA4).
T1 sequence: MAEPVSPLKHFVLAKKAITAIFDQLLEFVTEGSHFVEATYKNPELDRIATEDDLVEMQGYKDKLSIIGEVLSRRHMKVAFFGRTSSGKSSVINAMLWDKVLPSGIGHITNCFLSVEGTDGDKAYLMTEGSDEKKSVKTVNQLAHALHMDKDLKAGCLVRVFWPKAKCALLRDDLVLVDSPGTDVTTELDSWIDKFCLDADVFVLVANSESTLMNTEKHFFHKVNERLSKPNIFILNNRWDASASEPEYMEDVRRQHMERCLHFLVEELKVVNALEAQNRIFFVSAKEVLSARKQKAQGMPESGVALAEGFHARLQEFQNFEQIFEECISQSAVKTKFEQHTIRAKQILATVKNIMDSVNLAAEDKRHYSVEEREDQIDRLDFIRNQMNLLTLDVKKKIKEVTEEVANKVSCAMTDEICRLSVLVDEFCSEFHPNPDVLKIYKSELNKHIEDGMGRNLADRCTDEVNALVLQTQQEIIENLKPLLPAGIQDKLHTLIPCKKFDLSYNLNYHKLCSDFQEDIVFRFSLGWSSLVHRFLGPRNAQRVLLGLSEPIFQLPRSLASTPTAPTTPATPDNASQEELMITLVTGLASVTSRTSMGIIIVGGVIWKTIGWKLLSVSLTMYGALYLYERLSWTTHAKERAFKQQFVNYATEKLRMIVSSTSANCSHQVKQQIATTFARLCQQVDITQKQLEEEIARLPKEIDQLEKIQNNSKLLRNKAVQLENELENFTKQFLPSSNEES
The assay can be described thus: proximity ligation.

For “PINK1(WT)-3HA (from UniProt Q9BXM7 1-581) (enzyme)”, the binding entry in assay [1] and in assay [2] was “no binding” each time.

Values taken from publication doi:10.1101/2021.08.25.457684.
